US8022203B2, “Amino derivatives of beta-homoandrostanes and beta-heteroandrostanes” (Sigma-Tau Industrie Farmaceutiche Riunite S.p.A., priority 2006, dated 2011)
Where a name gives a salt, the structure may show the parent alone.

How the values were obtained:
[1] = test system: spontaneous hypertensive rats of the Milan (MHS); assay: Systolic blood pressure fall in spontaneous hypertensive rats (MHS), tail-cuff; format: in vivo, rat; settings: five weeks, vs vehicle control
[2] = test system: hypertensive ouabain-sensitive rats (OS rats); assay: Systolic blood pressure fall in hypertensive ouabain-sensitive rats (OS rats), tail-cuff; format: in vivo, rat; settings: 10 μg/kg/day by mouth, four weeks
Protocol: The ability of these compounds to lower blood pressure was tested by using animal models with genetic arterial hypertension, in particular, spontaneous hypertensive rats of the Milan (MHS) (Bianchi G., Ferrari P., Barber B. The Milan Hypertensive strain. In Handbook of hypertension. Vol. 4: Experimental and genetic models of hypertension. Ed. W. de jong-Elsevier Science Publishers B.V., 1984:328-349) and rats made hypertensive by chronic infusion of ouabain, according to Ferrari P., et al. J. Pharm. Exp. Ther. 1998, 285, 83-94.
The procedure adopted to test the antihypertensive activity of the compounds on the above mentioned model was the following: systolic blood pressure (SBP) and heart rate (HR) were measured by an indirect tail-cuff method.
SBP and HR were measured weekly 6 hours after the treatment.

## C[C@]12CCC(=NOCCN)CC1C(=O)C[C@@H]1[C@@H]2CC[C@]2(C)C(=O)CC[C@@H]12.Cl (mixture of isomers) [Compd. 22b, (EZ) 3-(2-aminoethoxyimino)androstane-6,17-dione hydrochloride, reference compound]
[1]; 10 μg/kg/os daily
  HR %: −4.3%
  HR beats/min. (variation of heart rate): −15.8 beats/min.
[1]; 100 μg/kg/os daily
  HR %: −2.0%
  HR beats/min. (variation of heart rate): −7.2 beats/min.

## CNCCCON=C1CCC2(C)C(C1)NC(=O)CC1C3CCC(=O)C3(C)CCC12 (stereo not drawn) [I-ac, (E,Z) 3-(3-N-Methylaminopropoxyimino)-6-aza-7a-homoandrostane-7,17-dione fumarate]
[1]; 10 μg/kg/os daily
  HR %: 0.0%
  HR beats/min. (variation of heart rate): 0.0 beats/min.

## CC12CCC3C(CC(=O)NC4CC(=NOCCN)CCC43C)C1CCC2=O (stereo not drawn) [I-aa, (E,Z) 3-(2-Aminoethoxyimino)-6-aza-7a-homoandrostane-7,17-dione hydrochloride]
[2]
  HR beats/min.: 385 beats/min.
[1]; 0.001 μg/kg/os daily
  HR %: −5.0%
  HR beats/min. (variation of heart rate): −17.5 beats/min.
[1]; 0.01 μg/kg/os daily
  HR %: −4.8%
  HR beats/min. (variation of heart rate): −7.5 beats/min.
[1]; 0.1 μg/kg/os daily
  HR %: −4.8%
  HR beats/min. (variation of heart rate): −16.3 beats/min.
[1]; 1 μg/kg/os daily
  HR %: −3.6%
  HR beats/min. (variation of heart rate): −12.4 beats/min.
[1]; 10 μg/kg/os daily
  HR %: −2.1%
  HR beats/min. (variation of heart rate): −7.5 beats/min.

## CC12CCC3C(CCN(C=O)C4CC(=NOC5CCNC5)CCC34C)C1CCC2=O [I-ap, (E,Z) 3-[3-(R)-Pyrrolidinyl]oxyimino-6-aza-6-formyl-7a-homoandrostane-17-one hydrochloride]
[2]
  HR beats/min.: 387 beats/min.
